Laboratory results as given in paper PMC6100580.
These are yes or no findings as the source states them, for the method shown. In cells and extracts the contact can be indirect. Some binding calls cover weakened binding; strength is not graded here.

The chains behind the UniProt entries cited, without tags or fusion partners. Where a name states a change or a piece, a line headed by the entry shows the natural chain unless it says otherwise.
UniProt Q16531: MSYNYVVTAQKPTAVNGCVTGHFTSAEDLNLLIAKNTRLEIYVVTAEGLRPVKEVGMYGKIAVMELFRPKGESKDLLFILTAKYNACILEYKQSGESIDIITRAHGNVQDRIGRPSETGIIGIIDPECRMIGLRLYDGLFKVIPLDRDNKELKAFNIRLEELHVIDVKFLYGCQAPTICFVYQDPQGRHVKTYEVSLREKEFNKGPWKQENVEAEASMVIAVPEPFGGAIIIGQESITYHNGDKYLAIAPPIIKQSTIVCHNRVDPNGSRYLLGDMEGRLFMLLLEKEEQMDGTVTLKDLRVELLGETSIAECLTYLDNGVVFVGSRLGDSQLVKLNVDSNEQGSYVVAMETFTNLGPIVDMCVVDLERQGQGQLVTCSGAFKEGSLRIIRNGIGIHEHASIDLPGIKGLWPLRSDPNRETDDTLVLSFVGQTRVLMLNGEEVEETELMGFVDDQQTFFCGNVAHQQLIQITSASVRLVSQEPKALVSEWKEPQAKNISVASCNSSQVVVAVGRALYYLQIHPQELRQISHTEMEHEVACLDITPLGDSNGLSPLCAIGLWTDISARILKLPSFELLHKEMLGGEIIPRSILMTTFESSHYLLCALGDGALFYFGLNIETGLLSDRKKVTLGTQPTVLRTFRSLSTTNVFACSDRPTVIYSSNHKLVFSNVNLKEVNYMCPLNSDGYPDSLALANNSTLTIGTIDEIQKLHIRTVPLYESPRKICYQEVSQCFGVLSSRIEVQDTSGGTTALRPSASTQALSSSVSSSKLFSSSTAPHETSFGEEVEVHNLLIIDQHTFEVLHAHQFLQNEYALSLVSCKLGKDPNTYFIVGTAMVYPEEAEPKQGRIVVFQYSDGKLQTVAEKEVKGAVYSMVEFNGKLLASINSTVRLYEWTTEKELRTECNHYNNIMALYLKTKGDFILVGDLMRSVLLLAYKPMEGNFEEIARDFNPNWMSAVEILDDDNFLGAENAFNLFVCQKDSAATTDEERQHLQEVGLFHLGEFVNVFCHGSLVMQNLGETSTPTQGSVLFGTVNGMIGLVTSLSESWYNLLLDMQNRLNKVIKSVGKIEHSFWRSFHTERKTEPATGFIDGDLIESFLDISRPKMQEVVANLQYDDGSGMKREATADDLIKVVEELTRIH
UniProt Q8IY18: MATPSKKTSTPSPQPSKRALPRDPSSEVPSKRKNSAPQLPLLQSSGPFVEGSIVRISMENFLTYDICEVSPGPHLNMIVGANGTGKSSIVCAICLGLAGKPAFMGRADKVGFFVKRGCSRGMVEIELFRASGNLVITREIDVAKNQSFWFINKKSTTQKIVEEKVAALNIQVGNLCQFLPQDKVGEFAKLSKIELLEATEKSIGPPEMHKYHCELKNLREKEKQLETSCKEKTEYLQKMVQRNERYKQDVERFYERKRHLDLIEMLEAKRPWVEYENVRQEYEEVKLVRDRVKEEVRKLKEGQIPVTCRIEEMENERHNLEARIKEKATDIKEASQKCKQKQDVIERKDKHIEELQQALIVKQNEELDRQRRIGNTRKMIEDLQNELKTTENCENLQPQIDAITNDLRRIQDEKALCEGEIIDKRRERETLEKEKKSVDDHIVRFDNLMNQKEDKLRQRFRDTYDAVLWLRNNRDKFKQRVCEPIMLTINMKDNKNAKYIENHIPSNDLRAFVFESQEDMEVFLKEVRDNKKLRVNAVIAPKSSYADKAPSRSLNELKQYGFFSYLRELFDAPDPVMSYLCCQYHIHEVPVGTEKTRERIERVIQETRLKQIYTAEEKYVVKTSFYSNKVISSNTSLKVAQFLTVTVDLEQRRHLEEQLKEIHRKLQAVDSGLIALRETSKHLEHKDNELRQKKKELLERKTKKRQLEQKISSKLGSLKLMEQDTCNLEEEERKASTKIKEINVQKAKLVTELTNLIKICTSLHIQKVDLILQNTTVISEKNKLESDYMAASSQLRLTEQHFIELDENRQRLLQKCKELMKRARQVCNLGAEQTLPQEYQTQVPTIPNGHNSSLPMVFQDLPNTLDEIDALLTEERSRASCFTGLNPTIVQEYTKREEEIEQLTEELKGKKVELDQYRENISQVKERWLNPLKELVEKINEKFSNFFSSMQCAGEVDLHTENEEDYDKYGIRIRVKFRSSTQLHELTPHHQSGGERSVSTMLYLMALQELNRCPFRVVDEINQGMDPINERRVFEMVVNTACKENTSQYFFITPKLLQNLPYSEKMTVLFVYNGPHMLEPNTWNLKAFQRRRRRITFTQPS

Target: Flag-DDB1 (UniProt Q16531)
Test: co-IP; 293 T cells transfected with HA-TRIM14, Flag-DDB1 or GST-HBx plasmids as indicated; 36 h later MG132 (10 uM) for 8 h; ANTI-FLAG M2 Affinity Gel; immunoblot

## Smc5/6 (from UniProt Q8IY18 1-1101; Q96SB8 1-1091) (complex)
  binding: binds
